Publication PMC10163288
The other results are listed elsewhere or left out.

B1: il2ra_site2_2erj_sap_13_mot_HHH_b2_05866_000000027_0001_43_57_H_._HHH_b1_01900_0001_0000500025_0000001_0_0001 (protein)
chain: SSSSSDREEVERLLEEIEKALEEGDEEKVARLILEVVRLAREIGDDELLYEVYRLMRLSVSSSSS
B2: il2ra_site1_1z92_normal_mot_01209686ea234b34325f918445e6eade_0001_af2_000000154_0001_18_33_H_._HHH_b2_00358_af2_0001_0000500048_0000001_0_af2pred_0001_af2pred_1 (protein)
chain: SSSSDELEEIAEKIVEELVEELGLSEEDKELLEAAARQAVEAGFSEHSIRLALRALAERLSSSSS
B3: il2ra_site1_3nfp_sap_17_mot_HHH_b2_07180_000000236_0001_22_38_H_._HHH_b1_03639_0001_0000200009_0000001_0_0001 (protein)
chain: SSSSSTERAQRIYELMRELAKITDPEELRELLKEAEELAQERGDERLQRDIEWALEMLNSSSSSS
B4: il2ra_site2_2erj_sap_23_mot_HHH_b1_00839_000000020_0001_43_57_H_._HHH_b2_06385_0001_0000200013_0000001_0_0001 (protein)
chain: SSSSDKIRRLYKLLVELLELVTRGDEERFEEVAEEVEELVEELDSRTAEEALKNLERLIKSSSSS
B5: il2ra_site2_3nfp_sap_21_mot_HHH_b1_04762_000000120_0001_42_54_H_._HHH_b2_02550_0001_0000200009_0000001_0_0001 (protein)
chain: SSSSDLLHRVMQKLLELAEKARSEEEARVALEVYILALEATETNDEELAEEARRLLEELENSSSS
B6: il2ra_site2_3nfp_sap_21_mot_HHH_b2_00326_000000029_0001_23_39_H_._65f6caabe5f1d29e5f94bb05bf74ecd1_0001_af2_0001_0000800016_0000001_1_0001 (protein)
chain: SSSSDIEEEVEELLERAKKLLEEGDKFEAFALLADALFLAWQANDPELRELVRRVSKLMGSSSSS
B7: il2ra_site1_3nfp_sap_14_mot_678a1b28e3afbd0e6d42a78f97d9d1d3_0001_af2_000000264_0001_35_49_H_._76fd10c11be1666c73cf7cbc084f7efb_0001_0001_0000400036_0000001_0_0 … (protein)
chain: DREEIIREAIERAAKNAGVPSVTVSVHDGEVHVEIEGTDYEAKALARLIEDLARVLGLEVEVEVR
B8: il2ra_site1_1z92_sap_19_mot_HHH_b2_05589_000000019_0001_42_57_H_._HHH_b2_04672_0001_0000200013_0000001_0_0001_af2pred_0001_af2pred (protein)
chain: SSSSDLEEDEEIIRVIIEVFKEYHLSLEDLRELHETALRLLEEGVSLEEIERLLRELAHELSSSS
B9: il2ra_site1_1z92_sap_17_mot_HHH_b2_07164_000000082_0001_1_15_H_._70aef1711e60a8afe3a0277517b0bc39_0001_0001_0000100010_0000001_0_0001 (protein)
chain: TKEELRELLEEAAEKNDPELVKEVLEFIERDAGDPRLALQYLLILARKLNDPDLERLVKIVAEEH
B10: il2ra_site1_2b5i_sap_11_mot_HHH_b1_08426_af2_000000046_0001_39_52_H_._HHH_b2_08125_0001_0000200013_0000001_0_0001_af2pred_dldesign_0_af2pred (protein)
chain: SSSSSEEEREKRKLIVTAIYKARKAGRLDLVEELEKLFREAEEKEDPELLEKAVELAEKLKSSSS
B11: il2ra_site2_2erj_sap_27_mot_7e1f6796e11acccb4f28c496eb549a56_0001_000000101_0001_18_33_H_._HHH_b2_05848_0001_0000100002_0000001_0_0001 (protein)
chain: SRLAERLSELFIEGNLEELIERLEEEAEEKGDPELRKVVELLREALEKRDLHLLYEAANLLLALE
B12: il2ra_site2_3nfp_sap_15_mot_HHH_b2_03534_af2_000000269_0001_23_39_H_._HHH_b2_03417_0001_0000300007_0000001_1_0001 (protein)
chain: SSSSDSEEYIRAALALAKRAAERNDPWAKKLLEMIRMAIEDNGDEEAEELLEEIERLLRELSSSS
B13: il2ra_site2_3nfp_normal_mot_HHH_b2_08245_000000023_0001_41_55_H_._HHH_b1_01900_0001_0000200014_0000001_0 (protein)
chain: SSSSSEDEERVRELLEEAERYYKEGNPEEVRRLLAEAVQIAYENRNSRLFMLVAEVLFKLASSSS
B14: il2ra_site1_3nfp_normal_mot_HHH_b1_06850_000000137_0001_20_36_H_._07b95291b2aa50a0032af9b2c932e4da_0001_0001_0000200008_0000001_0_af2pred_0001_af2pred_1_swapped (protein)
chain: SAAEVLVRRLLRDGVPPEEILRRLRESAEKSGLPPEEVLKIILEVARAVGDPELEELVEKELEET
B15: il2ra_site1_3nfp_sap_24_mot_HHH_b1_03720_af2_000000263_0001_1_17_H_._e4d3c9083c3fc392893eb496235fbbca_0001_0001_0000200017_0000001_0_0001 (protein)
chain: SSSSTEELQRLFHEAFELAKEGDKEEAQEVLEELIELAREEGDRNLLRSAERALEMLRRGSSSSS
B16: il2ra_site2_3nfp_sap_24_mot_0136b98644bc9a8eb58b95019b738ebb_0001_1_000000071_0001_1_13_H_._HHH_b1_06774_af2_0001_0000900021_0000001_0_0001 (protein)
chain: SSSSSSDLEEEVQELLERLKKVSEEERKKLLAKAVRLVWENNNPELYMRIAEALFELASSSSSSS
B17: il2ra_site2_2erj_sap_14_mot_HHH_b2_02734_000000067_0001_42_55_H_._1caa80fd4e4d8c86599c81cf5b939f25_0001_1_0001_0000200002_0000001_0_0001 (protein)
chain: SSSSDKEEIEELLEELEEALREGDHHTFAEIFSRVLELIQKLGDEELLKILWELLREHARNSSSS
B18: il2ra_site1_3nfp_normal_mot_HHH_b2_02053_000000240_0001_1_20_H_._HHH_b2_04625_af2_0001_0000400056_0000001_0_af2pred_0001_af2pred (protein)
chain: SSSSSDSVRRAAELSRRIQELLREGNPEEAEELIRELEELAKKHNDPAAKLLVKRLEKLLSSSSS

Biological target: il2ra, P01589
Assay: yeast display titration

Apparent Kd, inactive:
B1 no binding seen
B2 no binding seen
B3 no binding seen
B4 no binding seen
B5 no binding seen
B6 no binding seen
B7 no binding seen
B8 no binding seen
B9 no binding seen
B10 no binding seen
B11 no binding seen
B12 no binding seen
B13 no binding seen
B14 no binding seen
B15 no binding seen
B16 no binding seen
B17 no binding seen
B18 no binding seen

2 entries picked at random from the list so far, as already listed:
Apparent Kd, inactive:
B18 no binding seen
B10 no binding seen
